Assay results from patent US11826357B2, “Bacterial efflux pump inhibitors” (RUTGERS, THE STATE UNIVERSITY OF NEW JERSEY, priority 2017, dated 2023).
The name of at least one read-out is uncertain.

Tests used:
[1] = tested on: Escherichia coli ATCC 25922; assay: Bacterial EPI assay: MIC of clarithromycin in the presence of the EPI; format: cell-based; conditions: fold increase of clarithromycin activity at the EPI concentration printed in the same cell
[2] = tested on: Pseudomonas aeruginosa ATCC 27853; assay: Standard bacterial EPI assay: MIC of levofloxacin in the absence and presence of the EPI; format: cell-based; conditions: fold increase of levofloxacin activity at the EPI concentration printed in the same cell
Procedure: MIC assays were conducted in accordance with Clinical and Laboratory Standards Institute (CLSI) guidelines for broth microdilution. A 96-well plate containing cation-adjusted Mueller-Hinton (CAMH broth with 2-fold serial dilution of compounds was inoculated with log-phase bacterial at 5×10^5 CFU/mL. The final volume in each well was 100 μL. Each compound was tested in duplicate. The microtiter plates were incubated in an aerobic environment for 18 hours at 37° C. Then the bacterial growth was tested by reading the plate with a VersaMax plate reader (Molecular Devices, Inc.) at 600 nm. The MIC was defined as the lowest compound concentration that inhibited 90% of bacteria growth.
The EPI assay for the purposes of these studies represents a MIC assay in which the MIC of the antibiotic against the bacteria is tested in the presence of an experimental efflux pump inhibitor (EPI). The highest concentration of the EPI present in the assay typically is ½ of the intrinsic MIC of the compound. If the intrinsic MIC of the EPI is greater than 100 μg/mL, the EPI assay was tested with 50 μg/mL. Using serial dilutions of the EPI, its enhancement of antibiotic activity was then evaluated. The relative EPI activity was decided by comparing the MIC of the antibiotic in the presence of the EPI compound with the intrinsic MIC of the antibiotic alone. For the evaluation of the efficacy of an EPI against bacteria that were pre-exposed to an antibiotic, the inoculum of bacteria that used was developed from a bacterial culture isolated as a single colony following exposure at ½ the MIIC of the antibiotic (so as to induce efflux pump expression), was to be used in combination with the EPI.
The impact of Example 2 on the MIC values of two test antibiotics (levofloxacin and cefepime) against P. aeruginosa ATCC 27853 were evaluated using our standard EPI assay. Both levofloxacin and cefepime are known substrates of efflux pumps in P. aeruginosa, and are thus well-suited to be test antibiotics to assay for EPI activity.
In our standard EPI assay, the MIC of the test antibiotic is determined in the absence and presence of sub-inhibitory concentrations of the EPI. Initially, the sub-inhibitory concentration used was ½×MIC of the EPI. […] The MIC of levofloxacin against P. aeruginosa ATCC 27853 in the absence of EPI is 1 μg/mL.

| Structure (SMILES) | Enhanced Activity in E. coli (fold increase) [1] [x] | Enhanced Activity in P. aeruginosa (fold increase) [2] [x] |
| --- | --- | --- |
| Cl.Cl.NCCC[C@H](N)CNC(=O)c1[nH]c2ccc(-c3ccc(F)cc3)cc2c1-c1ccc(F)cc1 [Example 15, (S)—N-(2,5-diaminopentyl)-3,5-bis(4-fluorophenyl)-1H-indole-2-carboxamide dihydrochloride] | 256 | 1 |
| Cl.Cl.NCCC[C@H](N)CNC(=O)c1[nH]c2ccccc2c1-c1ccc(F)cc1 [Example 13, (S)—N-(2,5-diaminopentyl)-3-(4-fluorophenyl)-1H-indole-2-carboxamide dihydrochloride] | 16 | 8 |
| Cl.Cl.NCCC[C@H](N)CNC(=O)c1[nH]c2ccc(-c3ccc(F)cc3)cc2c1-c1cccc(OCc2ccccc2)c1 [Example 16, (S)-3-(3-(benzyloxy)phenyl)-N-(2,5-diaminopentyl)-5-(4-fluorophenyl)-1H-indole-2-carboxamide dihydrochloride] | 256 | 2 |
| Cl.Cl.NCCCC(N)CNC(=O)c1[nH]c2cc(-c3ccc(F)cc3)ccc2c1-c1ccc(C(=O)O)cc1 (stereo in doubt) [Example 14, (S)-4-(2-((2,5-diaminopentyl)carbamoyl)-6-(4-fluorophenyl)-1H-indol-3-yl)benzoic acid hydrochloride] | 8 | 1 |
